Data: the supplement of paper PMC8728848
The list shows a part of the results.

Key:
Test in all cases: glycan array binding signal (z-score within array); higher = stronger binding
Details in all cases: glycan notation: IUPAC condensed, linker removed
[1] = target: Fuc(a1-2)Gal(b1-4)GlcNAc(b1-3)Gal(b1-4)GlcNAc(b1-2)Man(a1-3)[Fuc(a1-2)Gal(b1-4)GlcNAc(b1-3)Gal(b1-4)GlcNAc(b1-2)Man(a1-6)]Man(b1-4)GlcNAc(b1-4)GlcNAc
Procedure, shortened: (§1)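 Glycan array data came from 3228 arrays in the Consortium for Functional Glycomics database, and only arrays with an available protein sequence were kept. Glycan names were put into IUPAC-condensed notation, and columns mapping to the same glycan were averaged. The binding signal is a within-array Z-score, averaged across arrays of one protein sequence run at different concentrations or buffers and across linkers. A negative Z-score can be read as non-binding.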

[2] = target: Fuc(a1-2)Gal(b1-4)GlcNAc(b1-3)Gal(b1-4)GlcNAc(b1-3)Gal(b1-4)GlcNAc
Procedure, shortened: as §1

[3] = target: Fuc(a1-2)Gal(b1-4)GlcNAc(b1-3)GalNAc
Procedure, shortened: as §1

[4] = target: Fuc(a1-2)Gal(b1-4)GlcNAc(b1-3)[Fuc(a1-2)Gal(b1-4)GlcNAc(b1-6)]GalNAc
Procedure, shortened: as §1

[5] = target: Fuc(a1-2)Gal(b1-4)GlcNAc(b1-3)[Fuc(a1-3)[Gal(b1-4)]GlcNAc(b1-6)]Gal(b1-4)Glc
Procedure, shortened: as §1

[6] = target: Fuc(a1-2)Gal(b1-4)GlcNAc(b1-6)GalNAc
Procedure, shortened: as §1

[7] = target: Fuc(a1-2)Gal(b1-4)GlcNAc6S
Procedure, shortened: as §1

[8] = target: Fuc(a1-2)Gal(b1-4)[Fuc(a1-3)]GlcNAc
Procedure, shortened: as §1

[9] = target: Fuc(a1-2)Gal(b1-4)[Fuc(a1-3)]GlcNAc(b1-2)Man(a1-3)[Fuc(a1-2)Gal(b1-4)[Fuc(a1-3)]GlcNAc(b1-2)Man(a1-6)]Man(b1-4)GlcNAc(b1-4)[Fuc(a1-6)]GlcNAc
Procedure, shortened: as §1

[10] = target: Fuc(a1-2)Gal(b1-4)[Fuc(a1-3)]GlcNAc(b1-2)[Fuc(a1-2)Gal(b1-4)[Fuc(a1-3)]GlcNAc(b1-4)]Man(a1-3)[Fuc(a1-2)Gal(b1-4)[Fuc(a1-3)]GlcNAc(b1-2)Man(a1-6)]Man(b1-4)GlcNAc(b1-4)GlcNAc
Procedure, shortened: as §1

[11] = target: Fuc(a1-2)Gal(b1-4)[Fuc(a1-3)]GlcNAc(b1-3)Gal(b1-4)[Fuc(a1-3)]GlcNAc
Procedure, shortened: as §1

[12] = target: Fuc(a1-2)Gal(b1-4)[Fuc(a1-3)]GlcNAc(b1-3)Gal(b1-4)[Fuc(a1-3)]GlcNAc(b1-3)Gal(b1-4)[Fuc(a1-3)]GlcNAc
Procedure, shortened: as §1

[13] = target: Fuc(a1-2)Gal(b1-4)[Fuc(a1-3)]GlcNAc(b1-3)GalNAc
Procedure, shortened: as §1

[14] = target: Fuc(a1-2)Gal(b1-4)[Fuc(a1-3)]GlcNAc(b1-3)[Neu5Ac(a2-6)Gal(b1-4)GlcNAc(b1-6)]Gal(b1-4)Glc
Procedure, shortened: as §1

[15] = target: Fuc(a1-2)Gal3S(b1-4)GlcNAc
Procedure, shortened: as §1

[16] = target: Fuc(a1-2)Gal6S(b1-3)GlcNAc
Procedure, shortened: as §1

[17] = target: Fuc(a1-2)Gal6S(b1-3)GlcNAc6S
Procedure, shortened: as §1

Fuc(a1-2)Gal6S(b1-4)Glc = target: Fuc(a1-2)Gal6S(b1-4)Glc
Procedure, shortened: as §1

[18] = target: Fuc(a1-2)Gal6S(b1-4)Glc6S
Procedure, shortened: as §1

Fuc(a1-2)[Gal(a1-3)]Gal = target: Fuc(a1-2)[Gal(a1-3)]Gal
Procedure, shortened: as §1

[19] = target: Fuc(a1-2)[Gal(a1-3)]Gal(b1-3)GalNAc
Procedure, shortened: as §1

[20] = target: Fuc(a1-2)[Gal(a1-3)]Gal(b1-3)GalNAc(b1-3)Gal(a1-4)Gal(b1-4)Glc
Procedure, shortened: as §1

[21] = target: Fuc(a1-2)[Gal(a1-3)]Gal(b1-3)GlcNAc
Procedure, shortened: as §1

[22] = target: Fuc(a1-2)[Gal(a1-3)]Gal(b1-3)GlcNAc(b1-2)Man(a1-3)[Fuc(a1-2)[Gal(a1-3)]Gal(b1-3)GlcNAc(b1-2)Man(a1-6)]Man(b1-4)GlcNAc(b1-4)GlcNAc
Procedure, shortened: as §1

[23] = target: Fuc(a1-2)[Gal(a1-3)]Gal(b1-3)GlcNAc(b1-2)Man(a1-3)[Fuc(a1-2)[Gal(a1-3)]Gal(b1-3)GlcNAc(b1-2)Man(a1-6)]Man(b1-4)GlcNAc(b1-4)[Fuc(a1-6)]GlcNAc
Procedure, shortened: as §1

[24] = target: Fuc(a1-2)[Gal(a1-3)]Gal(b1-3)GlcNAc(b1-3)GalNAc
Procedure, shortened: as §1

[25] = target: Fuc(a1-2)[Gal(a1-3)]Gal(b1-3)GlcNAc(b1-6)GalNAc
Procedure, shortened: as §1

[26] = target: Fuc(a1-2)[Gal(a1-3)]Gal(b1-4)Glc
Procedure, shortened: as §1

[27] = target: Fuc(a1-2)[Gal(a1-3)]Gal(b1-4)GlcNAc
Procedure, shortened: as §1

[28] = target: Fuc(a1-2)[Gal(a1-3)]Gal(b1-4)GlcNAc(b1-2)Man
Procedure, shortened: as §1

B1: AT1G80310(18) (Arabidopsis thaliana), Q0WP36 (protein)
chain: METTTTPLLPGDRSRCGWLRRRLRLKNPLSSELSGAVGDLGTFIPIVLTLTLVSNLDLSTTLIFTGFYNIATGLLFDIPMPVQPMKSIAAVAVSESPHLTPSQIAAAGASTAATLLLLGATGAMSFLYNIIPLPVVRGVQLSQGLQFAFTAIKYVRFNYDTATLKPSSSPRIWLGLDGLILALAALLFIILSTGSGNDREAEDGDLAETSSNESQSRRRRLRLLSSIPSALIVFALGLVLCFIRDPSIFKDLKFGPSKFHILRISWDDWKIGFLRAAIPQIPLSVLNSVIAVCKLSNDLFDKELSATTVSISVGVMNLIGCWFGAMPVCHGAGGLAGQYRFGARSGLSVIFLGIGKLIVGLVFGNSFVRILSQFPIGILGVLLLFAGIELAMASKDMNSKEDSFIMLVCAAVSMTGSSAALGFGCGVVLYLLLKLRTLDCSSVTLFSRSSDESQVDSEAAPRDV
glycan array binding signal (z-score) [1]: -0.895 | glycan array binding signal (z-score) [2]: -0.682 | glycan array binding signal (z-score) [3]: -0.108 | glycan array binding signal (z-score) [4]: 0.42 | glycan array binding signal (z-score) [5]: 0.009 | glycan array binding signal (z-score) [6]: -0.777 | glycan array binding signal (z-score) [7]: -0.914 | glycan array binding signal (z-score) [8]: -0.396 | glycan array binding signal (z-score) [9]: 0.455 | glycan array binding signal (z-score) [10]: -0.219 | glycan array binding signal (z-score) [11]: -0.776 | glycan array binding signal (z-score) [12]: 0.554 | glycan array binding signal (z-score) [13]: 0.061 | glycan array binding signal (z-score) [14]: 0.312 | glycan array binding signal (z-score) [15]: -0.402 | glycan array binding signal (z-score) [16]: -0.426 | glycan array binding signal (z-score) [17]: -0.253 | glycan array binding signal (z-score) (Fuc(a1-2)Gal6S(b1-4)Glc): 0.666 | glycan array binding signal (z-score) [18]: 0.09 | glycan array binding signal (z-score) (Fuc(a1-2)[Gal(a1-3)]Gal): 0.01 | glycan array binding signal (z-score) [19]: -0.789 | glycan array binding signal (z-score) [20]: -0.21 | glycan array binding signal (z-score) [21]: 2.6 | glycan array binding signal (z-score) [22]: -0.019 | glycan array binding signal (z-score) [23]: -0.31 | glycan array binding signal (z-score) [24]: -0.354 | glycan array binding signal (z-score) [25]: 1.91 | glycan array binding signal (z-score) [26]: 0.522 | glycan array binding signal (z-score) [27]: -0.409 | glycan array binding signal (z-score) [28]: -0.355
